Assay [1] addresses T1, mouse α9 integrin (mouse, UniProt B8JK39 29-1036).
T1 chain: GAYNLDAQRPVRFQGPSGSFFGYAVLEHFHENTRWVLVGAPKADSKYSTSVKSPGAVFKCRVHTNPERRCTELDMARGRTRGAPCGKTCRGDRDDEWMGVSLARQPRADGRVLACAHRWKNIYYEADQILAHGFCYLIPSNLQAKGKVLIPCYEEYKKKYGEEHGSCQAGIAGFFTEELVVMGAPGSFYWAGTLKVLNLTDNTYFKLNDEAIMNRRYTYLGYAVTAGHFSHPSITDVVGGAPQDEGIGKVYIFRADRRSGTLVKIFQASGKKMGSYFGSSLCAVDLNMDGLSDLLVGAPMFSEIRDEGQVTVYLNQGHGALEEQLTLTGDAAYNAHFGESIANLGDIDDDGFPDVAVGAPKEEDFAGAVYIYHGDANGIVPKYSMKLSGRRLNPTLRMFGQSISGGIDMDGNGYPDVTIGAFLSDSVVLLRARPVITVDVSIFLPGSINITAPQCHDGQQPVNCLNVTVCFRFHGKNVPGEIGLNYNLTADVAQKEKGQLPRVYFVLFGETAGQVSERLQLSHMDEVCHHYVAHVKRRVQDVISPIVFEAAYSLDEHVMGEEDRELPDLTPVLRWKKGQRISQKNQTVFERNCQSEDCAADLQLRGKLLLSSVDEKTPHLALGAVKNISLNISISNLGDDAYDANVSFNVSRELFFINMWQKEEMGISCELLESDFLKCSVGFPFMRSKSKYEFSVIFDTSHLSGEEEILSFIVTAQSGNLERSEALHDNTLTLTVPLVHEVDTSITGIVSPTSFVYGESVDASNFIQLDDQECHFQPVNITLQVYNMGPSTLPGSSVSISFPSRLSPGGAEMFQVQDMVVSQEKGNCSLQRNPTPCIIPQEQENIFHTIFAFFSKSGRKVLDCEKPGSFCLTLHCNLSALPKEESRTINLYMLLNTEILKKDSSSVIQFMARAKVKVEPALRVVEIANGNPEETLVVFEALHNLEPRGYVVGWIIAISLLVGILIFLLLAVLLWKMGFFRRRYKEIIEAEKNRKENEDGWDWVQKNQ
In words: Cell ELISA of IgG in culture supernatant, anti-human IgG(Fc) detection. On the technique in general: ELISA stands for enzyme-linked immunosorbent assay.

Assay [2] addresses T1, mouse α9 integrin. Put plainly: flow cytometry on SW480/mα9. On the technique in general: In flow cytometry, cells or beads pass a laser one at a time.
Assay [3] has as its target T1, mouse α9 integrin. Put plainly: summary of earlier Cell ELISA / flow cytometry.
The target in assay [4] is T1, mouse α9 integrin. Put plainly: Cell ELISA on SW480/mα9.
Assay [5] addresses T1, mouse α9 integrin. In words: Cell ELISA on CHO/mα9, anti-Etag detection.
For assay [6], the target named is T1, mouse α9 integrin. In words: Cell ELISA of scFv.
Assay [7] deals with T1, mouse α9 integrin. In words: competition Cell ELISA, serially diluted scFv-Fc; competitor MA9-413 phage antibody.
The target in assay [8] is T1, mouse α9 integrin. In words: summary of Examples 18-24; format not named (scFv-Fc taken).

No constants are given. Whether binding was seen depends on the method and setting. Some entries that bind do so weakly or less than the wild type. For some assays here: Sequences can lack the tags named with a protein.

B1: HA9-212 IgG (antibody, V domains shown)
VH: EVQLVESGGGVVRPGGSLRLSCAASGFAFGEYGMSWVRQAPGKGLEWVSGINWNGGSTGYADSVQGRFTTSRDNAKNSLYLQMNSLRAEDTALYYCARDENYDILTGNYYYGMDVWGQGTTVTVSS
VL: QSVVTQPPSVSAAPGQKVTISCSGSSSNIGNNYVSWYQQLPGTAPKLLIYDNNKRPSGIPDRFSASKSGTSATLGITGLQTGDEADYYCGTWDSSLTVWAFGGGTKLTVLG
notes: VH joined to human IgG1 constant region; VL joined to 'human x chain constant region'; Tested as culture supernatant of COS-7 / FreeStyle 293-F cells
B1: in assay [1], the binding result is on record as “binds”.

B2: MA9-413 scFv-Fc (Fc fusion)
scFv: EVQLVESGGGVVRPGGSLRLSCAASGFAFGDYGMSWVRQAPGKGLEWVSGINWNGGSTGYADSVKGRFTTSRDNAKNSLYLQMNSLRAEDTALYYCARDENYDILTGYYYYGMDVWGQGTTVTVSSGGGGSGGGGSGGGGSQSVVTQPPSVSAAPGQKVTISCSGSSSNIGNNYVSWYQQLPGTAPKLLIYDNNKRPSGIPDRFSASKSGTSATLGITGLQTGDEADYYCGTWDSSLTVWAFGGGTKLTVLG
notes: Divalent scFv-Fc with mouse IgG1 Fc, expressed in CHO-DG44; also called ANM-2; not shown: Fc region of mouse IgG1 and its junction to the scFv
For B2, the binding entry in assay [2], in assay [3] and in assay [4] was “binds” throughout.

B3: MA9-413 scFv (scFv, not shown: small tags and cut ends)
scFv: EVQLVESGGGVVRPGGSLRLSCAASGFAFGDYGMSWVRQAPGKGLEWVSGINWNGGSTGYADSVKGRFTTSRDNAKNSLYLQMNSLRAEDTALYYCARDENYDILTGYYYYGMDVWGQGTTVTVSSGGGGSGGGGSGGGGSQSVVTQPPSVSAAPGQKVTISCSGSSSNIGNNYVSWYQQLPGTAPKLLIYDNNKRPSGIPDRFSASKSGTSATLGITGLQTGDEADYYCGTWDSSLTVWAFGGGTKLTVLG
On to B3, for which the binding entry in assay [5] is “binds”.

B4: MA9-418 scFv (scFv, not shown: small tags and cut ends)
scFv: EVQLVESGGGVVRPGGSLRLSCAASGFAFGDYGMSWVRQAPGKGLEWVSGINWNGGSTGYADSVKGRFTTSRDNAKNSLYLQMNSLRAEDTALYYCARDENYDILTGAYYYGMDVWGQGTTVTVSSGGGGSGGGGSGGGGSQSVVTQPPSVSAAPGQKVTISCSGSSSNIGNNYVSWYQQLPGTAPKLLIYDNNKRPSGIPDRFSASKSGTSATLGITGLQTGDEADYYCGTWDSSLTVWAFGGGTKLTVLG
As to B4, the binding result in assay [6] is “binds”.

B5: HA9-212 scFv-Fc (Fc fusion, not shown: a dimerising Fc or GST)
scFv: EVQLVESGGGVVRPGGSLRLSCAASGFAFGEYGMSWVRQAPGKGLEWVSGINWNGGSTGYADSVQGRFTTSRDNAKNSLYLQMNSLRAEDTALYYCARDENYDILTGNYYYGMDVWGQGTTVTVSSGGGGSGGGGSGGGGSQSVVTQPPSVSAAPGQKVTISCSGSSSNIGNNYVSWYQQLPGTAPKLLIYDNNKRPSGIPDRFSASKSGTSATLGITGLQTGDEADYYCGTWDSSLTVWAFGGGTKLTVLG
As to B5, the binding entry in assay [7] and in assay [8] was “binds” in each case.

B6: HA9-107 scFv-Fc (Fc fusion, not shown: a dimerising Fc or GST)
scFv: EVQLVESGGGVVRPGGSLRLSCAASGFAFGDYGMSWVRQAPGKGLEWVSGINWNGGSTGYADSVKGRFTTSRDNAKNSLYLQMNSLRAEDTALYYCARDENYDILTNEYYYGMDVWGQGTTVTVSSGGGGSGGGGSGGGGSQSVVTQPPSVSAAPGQKVTISCSGSSSNIGNNYVSWYQQLPGTAPKLLIYDNNKRPSGIPDRFSASKSGTSATLGITGLQTGDEADYYCGTWDSSLTVWAFGGGTKLTVLG
Consider B6, for which the binding result in assay [7] and in assay [8] was “binds” in each case.

B7: MA9-418 scFv-Fc (Fc fusion, not shown: a dimerising Fc or GST)
scFv: EVQLVESGGGVVRPGGSLRLSCAASGFAFGDYGMSWVRQAPGKGLEWVSGINWNGGSTGYADSVKGRFTTSRDNAKNSLYLQMNSLRAEDTALYYCARDENYDILTGAYYYGMDVWGQGTTVTVSSGGGGSGGGGSGGGGSQSVVTQPPSVSAAPGQKVTISCSGSSSNIGNNYVSWYQQLPGTAPKLLIYDNNKRPSGIPDRFSASKSGTSATLGITGLQTGDEADYYCGTWDSSLTVWAFGGGTKLTVLG
Turning to B7, the binding result in assay [7] and in assay [8] was “binds” throughout.

B8: HA9-143 scFv-Fc (Fc fusion, not shown: a dimerising Fc or GST)
scFv: EVQLVESGGGVVRPGGSLRLSCAASGFAFGEYGMSWVRQAPGKGLEWVSGINWNGGSTGYADSVKGRFTTSRDNAKNSLYLQMNSLRAEDTALYYCARDENYDILTGHYYYGMDVWGQGTTVTVSSGGGGSGGGGSGGGGSQSVVTQPPSVSAAPGQKVTISCSGSSSNIGNNYVSWYQQLPGTAPKLLIYDNNKRPSGIPDRFSASKSGTSATLGITGLQTGDEADYYCGTWDSSLTVWAFGGGTKLTVLG
As for B8, the binding entry in assay [7] and in assay [8] was “binds” each time.

The values above are taken from patent US20110014213A1 (JURIDICAL FDN THE CHEMO SERO THERAP RES INS, published 2011).
